Measurements published in doi:10.1101/2024.10.24.620053.
Results are given in words; binding and its absence hold for the method and conditions named. Binding seen in cells or lysates may run through a third protein. Some results given as binding are weak or reduced against the parent protein; the word gives no strength. For some of these results: Sequences can lack the tags named with a protein. Values belong to the binder of their own block, whether it stands above or below them.

Amino acid sequences for entries named in this document (tags omitted). A change or cut given only in a name is not applied to a line headed by its entry.
UniProt Q9UHD9, whole entry: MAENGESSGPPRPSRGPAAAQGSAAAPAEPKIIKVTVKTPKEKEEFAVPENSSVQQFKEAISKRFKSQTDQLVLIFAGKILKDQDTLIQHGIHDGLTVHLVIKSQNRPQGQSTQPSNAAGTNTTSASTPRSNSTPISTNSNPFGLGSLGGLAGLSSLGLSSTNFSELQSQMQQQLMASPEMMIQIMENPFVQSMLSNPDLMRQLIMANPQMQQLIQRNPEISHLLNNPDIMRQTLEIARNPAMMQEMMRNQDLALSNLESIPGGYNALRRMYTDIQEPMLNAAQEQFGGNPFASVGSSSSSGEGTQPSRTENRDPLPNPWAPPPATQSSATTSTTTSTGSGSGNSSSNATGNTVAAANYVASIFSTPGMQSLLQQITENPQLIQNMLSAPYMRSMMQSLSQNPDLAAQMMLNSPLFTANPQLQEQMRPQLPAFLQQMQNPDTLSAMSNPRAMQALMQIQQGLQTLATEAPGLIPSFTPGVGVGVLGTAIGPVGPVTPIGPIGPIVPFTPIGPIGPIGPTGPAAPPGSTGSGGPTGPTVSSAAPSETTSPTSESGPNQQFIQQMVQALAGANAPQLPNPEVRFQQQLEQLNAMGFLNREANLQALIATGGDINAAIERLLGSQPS
UniProt Q13283, whole entry: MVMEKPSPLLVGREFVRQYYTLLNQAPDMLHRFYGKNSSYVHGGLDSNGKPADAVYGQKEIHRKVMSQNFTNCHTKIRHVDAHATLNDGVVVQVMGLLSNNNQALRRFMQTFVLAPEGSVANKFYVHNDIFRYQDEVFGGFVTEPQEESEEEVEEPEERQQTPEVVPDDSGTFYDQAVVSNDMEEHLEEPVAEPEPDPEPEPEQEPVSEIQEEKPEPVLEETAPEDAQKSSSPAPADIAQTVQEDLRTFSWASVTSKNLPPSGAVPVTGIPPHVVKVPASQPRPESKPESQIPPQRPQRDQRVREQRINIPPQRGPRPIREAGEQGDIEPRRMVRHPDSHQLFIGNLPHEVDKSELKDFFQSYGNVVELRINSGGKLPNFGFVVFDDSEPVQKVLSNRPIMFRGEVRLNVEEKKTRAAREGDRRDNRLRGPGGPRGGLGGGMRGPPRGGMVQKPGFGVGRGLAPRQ

Columns and labels:
Test in all cases: co-IP
[1] = biological target: UBQLN2 (human (endogenous in HEK293 and HeLa)) (UniProt Q9UHD9)
[2] = biological target: T1, PEG10 gag-pol (human (endogenous in HEK293 and HeLa)) (UniProt Q86TG7)
T1 sequence: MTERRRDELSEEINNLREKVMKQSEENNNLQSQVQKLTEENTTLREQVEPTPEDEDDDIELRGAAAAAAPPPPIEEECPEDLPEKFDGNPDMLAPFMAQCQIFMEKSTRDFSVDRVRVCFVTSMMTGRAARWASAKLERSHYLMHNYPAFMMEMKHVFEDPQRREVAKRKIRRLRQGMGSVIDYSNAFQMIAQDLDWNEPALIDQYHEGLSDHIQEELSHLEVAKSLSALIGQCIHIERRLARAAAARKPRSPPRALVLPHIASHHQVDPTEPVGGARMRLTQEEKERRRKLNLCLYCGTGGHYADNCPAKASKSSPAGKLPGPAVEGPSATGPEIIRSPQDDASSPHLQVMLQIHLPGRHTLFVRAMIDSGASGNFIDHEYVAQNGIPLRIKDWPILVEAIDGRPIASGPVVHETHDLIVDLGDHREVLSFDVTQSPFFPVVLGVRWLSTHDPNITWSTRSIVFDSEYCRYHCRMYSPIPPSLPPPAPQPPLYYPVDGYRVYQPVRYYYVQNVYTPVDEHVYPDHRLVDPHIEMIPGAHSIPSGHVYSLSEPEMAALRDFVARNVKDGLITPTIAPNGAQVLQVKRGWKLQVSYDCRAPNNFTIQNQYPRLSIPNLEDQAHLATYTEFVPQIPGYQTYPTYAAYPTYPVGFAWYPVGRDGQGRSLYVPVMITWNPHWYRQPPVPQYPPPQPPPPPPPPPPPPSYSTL

[3] = biological target: G3BP1 (human (endogenous in HeLa)) (UniProt Q13283)
[4] = biological target: G3BP1 (human (endogenous in HeLa)), Q13283; settings: remark: other sources report otherwise

- binding [1]: no binding
- binding [2]: no binding
B1: HA-RTL8C ΔN (protein, UniProt A6ZKI3)
chain: MPIPFPETFDGDTDRLPEFIVQTGSYMFVDENTFSSDALKVTFLITRLTGPALQWVIPYIKKESPLLNDYRGFLAEMKRVFGWEEDEDF

- binding [3]: binds
B2: TIAR (protein, UniProt Q01085 1-375)
chain: MMEDDGQPRTLYVGNLSRDVTEVLILQLFSQIGPCKSCKMITEHTSNDPYCFVEFYEHRDAAAALAAMNGRKILGKEVKVNWATTPSSQKKDTSNHFHVFVGDLSPEITTEDIKSAFAPFGKISDARVVKDMATGKSKGYGFVSFYNKLDAENAIVHMGGQWLGGRQIRTNWATRKPPAPKSTQENNTKQLRFEDVVNQSSPKNCTVYCGGIASGLTDQLMRQTFSPFGQIMEIRVFPEKGYSFVRFSTHESAAHAIVSVNGTTIEGHVVKCYWGKESPDMTKNFQQVDYSQWGQWSQVYGNPQQYGQYMANGWQVPPYGVYGQPWNQQGFGVDQSPSAAWMGGFGAQPPQGQAPPPVIPPPNQAGYGMASYQTQ

- binding [4]: binds
B3: ATXN2, Q99700 1-1313 (protein)
chain: MRSAAAAPRSPAVATESRRFAAARWPGWRSLQRPARRSGRGGGGAAPGPYPSAAPPPPGPGPPPSRQSSPPSASDCFGSNGNGGGAFRPGSRRLLGLGGPPRPFVVLLLPLASPGAPPAAPTRASPLGARASPPRSGVSLARPAPGCPRPACEPVYGPLTMSLKPQQQQQQQQQQQQQQQQQQQQQQQPPPAAANVRKPGGSGLLASPAAAPSPSSSSVSSSSATAPSSVVAATSGGGRPGLGRGRNSNKGLPQSTISFDGIYANMRMVHILTSVVGSKCEVQVKNGGIYEGVFKTYSPKCDLVLDAAHEKSTESSSGPKREEIMESILFKCSDFVVVQFKDMDSSYAKRDAFTDSAISAKVNGEHKEKDLEPWDAGELTANEELEALENDVSNGWDPNDMFRYNEENYGVVSTYDSSLSSYTVPLERDNSEEFLKREARANQLAEEIESSAQYKARVALENDDRSEEEKYTAVQRNSSEREGHSINTRENKYIPPGQRNREVISWGSGRQNSPRMGQPGSGSMPSRSTSHTSDFNPNSGSDQRVVNGGVPWPSPCPSPSSRPPSRYQSGPNSLPPRAATPTRPPSRPPSRPSRPPSHPSAHGSPAPVSTMPKRMSSEGPPRMSPKAQRHPRNHRVSAGRGSISSGLEFVSHNPPSEAATPPVARTSPSGGTWSSVVSGVPRLSPKTHRPRSPRQNSIGNTPSGPVLASPQAGIIPTEAVAMPIPAASPTPASPASNRAVTPSSEAKDSRLQDQRQNSPAGNKENIKPNETSPSFSKAENKGISPVVSEHRKQIDDLKKFKNDFRLQPSSTSESMDQLLNKNREGEKSRDLIKDKIEPSAKDSFIENSSSNCTSGSSKPNSPSISPSILSNTEHKRGPEVTSQGVQTSSPACKQEKDDKEEKKDAAEQVRKSTLNPNAKEFNPRSFSQPKPSTTPTSPRPQAQPSPSMVGHQQPTPVYTQPVCFAPNMMYPVPVSPGVQPLYPIPMTPMPVNQAKTYRAVPNMPQQRQDQHHQSAMMHPASAAGPPIAATPPAYSTQYVAYSPQQFPNQPLVQHVPHYQSQHPHVYSPVIQGNARMMAPPTHAQPGLVSSSATQYGAHEQTHAMYACPKLPYNKETSPSFYFAISTGSLAQQYAHPNATLHPHTPHPQPSATPTGQQQSQHGGSHPAPSPVQHHQHQAAQALHLASPQQQSAIYHAGLAPTPPSMTPASNTQSPQNSFPAAQQTVFTIHPSHVQPAYTNPPHMAHVPQAHVQSGMVPSHPTAHAPMMLMTTQPPGGPQAALAQSALQPIPVSTTAHFPYMTHPSVQAHHQQQL
